Patent publication US20200384066A1
Results are given in words; binding and its absence hold for the method and conditions named. Some binding calls cover weakened binding; strength is not graded here.

Amino acid sequences for entries named in this document (tags omitted). Residues count along the entry.
UniProt P03950, residues 25-147: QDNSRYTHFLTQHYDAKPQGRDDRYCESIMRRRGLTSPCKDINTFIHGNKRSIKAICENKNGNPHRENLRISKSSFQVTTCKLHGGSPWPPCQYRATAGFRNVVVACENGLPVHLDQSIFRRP

Experiments:
angiogenin [1] = molecular target: angiogenin (UniProt P03950); assay: phage ELISA on coated angiogenin (FIG. 3)
angiogenin [2] = molecular target: angiogenin (UniProt P03950); assay: phage ELISA on coated angiogenin
angiogenin [3] = molecular target: angiogenin (UniProt P03950); assay: biopanning of the Ph.D.-12 library on coated angiogenin; clone frequency (11 of 57) and RELIC/INFO analysis

Measured: binding

WPYWNHHSHNNV (peptide, not shown: large carriers) [WV peptide-bearing phage]
binds: all assays above
